Experimental data: PubChem BioAssay AID1259260 (Sanger Institute, 2017)

- Assay: 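Kinases whose knock-down kills colorectal cancer cells or boosts drug effects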 (primary screen)
- Cells: human NCI-H716 colorectal cancer cells
- Reagents: siRNA pool against human genes
- Challenge: anchor drugs BYL719 (alpelisib) 1 µM, cetuximab 5 µg/ml or trametinib 10 nM, each at a dose chosen to harm viability only mildly; DMSO vehicle for the knock-down-alone arm
- Detection: 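Replicate-averaged viability relative to a non-targeting pool, a robust z-score for knock-down alone, and a synergy score per anchor drug versus each agent alone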
- Reading the numbers: viability robust z-score, siRNA alone: higher = more surviving cells; below -3 called essential; viability vs control, no drug: higher = more surviving cells; synergy score with BYL719 and synergy score with cetuximab: higher = stronger synergy (synthetic lethality) with drug
- Call rule: 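Essential when the robust z-score for knock-down alone falls below -3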
- Meaning of the calls: active = essential (knock-down alone lowers viability); inactive = no essential effect
The whole screen tested 794 reagents; shown is a part drawn at random. In the full data, 13 (1.6%) got an active call. 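Calls reflect only knock-down without drug; synergy above 0.15 was grouped apart and does not change the call.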 No viability above 1 is reported: the scale is capped. Not all columns of the deposit are shown. Not stated in the record: the amount of reagent, the time to read-out.

no.	gene symbol	viability robust z-score, siRNA alone	viability vs control, no drug (fraction of control)	synergy score with BYL719	synergy score with cetuximab	Call
1	UHMK1 (U2AF homology motif kinase 1)	0.602	1	0.0171	0.0952	inactive
2	TEK (TEK receptor tyrosine kinase)	0.287	0.967	-0.25	-0.13	inactive
3	TGFBR3 (transforming growth factor beta receptor 3)	0.602	1	-0.189	-0.1	inactive
4	EGFR (epidermal growth factor receptor)	-0.448	0.891	-0.098	-0.153	inactive
5	STRADA (STE20 related adaptor alpha)	0.602	1	-0.132	-0.1	inactive
6	IRAK1 (interleukin 1 receptor associated kinase 1)	0.602	1	-0.182	-0.0881	inactive
7	NEK11 (NIMA related kinase 11)	-2.73	0.654	-0.176	-0.112	inactive
8	NLK (nemo like kinase)	-0.25	0.911	-0.182	-0.042	inactive
9	PIK3CG	-0.12	0.925	-0.0656	0.173	inactive
10	NUAK1 (NUAK family kinase 1)	0.602	1	-0.15	-0.1	inactive
11	STYK1 (STY kinase 1)	-0.914	0.842	-0.168	0.0343	inactive
12	COMMD3 (COMM domain containing 3)	0.356	0.974	-0.0287	-0.0804	inactive
13	CDK2 (cyclin dependent kinase 2)	0.602	1	-0.174	-0.1	inactive
14	ACVR2B (activin A receptor type 2B)	0.602	1	-0.11	-0.0866	inactive
15	PRKAG3 (protein kinase AMP-activated non-catalytic subunit gamma 3)	-1.9	0.74	-0.139	0.00317	inactive
16	POLR2B (RNA polymerase II subunit B)	-1.8	0.751	-0.0837	-0.12	inactive
17	CPNE3 (copine 3)	0.602	1	-0.00955	-0.1	inactive
18	EFNB3 (ephrin B3)	0.139	0.952	-0.222	-0.144	inactive
19	MAPK1 (mitogen-activated protein kinase 1)	-1.03	0.83	-0.0063	-0.193	inactive
20	DUSP21 (dual specificity phosphatase 21)	0.602	1	-0.143	0.242	inactive
21	PIKFYVE (phosphoinositide kinase, FYVE-type zinc finger containing)	0.602	1	-0.0526	-0.0713	inactive
22	PTPRU (protein tyrosine phosphatase receptor type U)	-2.43	0.685	-0.189	-0.142	inactive

Targets listed so far whose target name starts with C or c:
gene symbol	viability robust z-score, siRNA alone	viability vs control, no drug (fraction of control)	synergy score with BYL719	synergy score with cetuximab	Call
COMMD3 (COMM domain containing 3)	0.356	0.974	-0.0287	-0.0804	inactive
CDK2 (cyclin dependent kinase 2)	0.602	1	-0.174	-0.1	inactive
CPNE3 (copine 3)	0.602	1	-0.00955	-0.1	inactive

Further reagents follow.
no.	gene symbol	viability robust z-score, siRNA alone	viability vs control, no drug (fraction of control)	synergy score with BYL719	synergy score with cetuximab	Call
23	RELA (RELA proto-oncogene, NF-kB subunit)	0.602	1	0.102	-0.1	inactive
24	AK2 (adenylate kinase 2)	0.602	1	-0.283	-0.1	inactive
25	PCBP1 (poly(rC) binding protein 1)	0.602	1	-0.0105	-0.0113	inactive
26	MED24 (mediator complex subunit 24)	0.602	1	-0.104	-0.1	inactive
27	LRRK2 (leucine rich repeat kinase 2)	0.602	1	-0.283	-0.1	inactive
28	NUP107 (nucleoporin 107)	0.602	1	-0.0673	-0.0101	inactive
29	MAP3K12 (mitogen-activated protein kinase kinase kinase 12)	0.602	1	-0.0227	-0.1	inactive
30	TSSK2 (testis specific serine kinase 2)	0.585	0.998	-0.0811	-0.0216	inactive
31	BRD3 (bromodomain containing 3)	0.602	1	-0.283	-0.1	inactive
32	MGA (MAX dimerization protein MGA)	-2.31	0.697	-0.131	-0.0148	inactive
33	ABL1 (ABL proto-oncogene 1, non-receptor tyrosine kinase)	0.602	1	0.0115	-0.0146	inactive
34	MAP3K15 (mitogen-activated protein kinase kinase kinase 15)	0.602	1	-0.000388	0.00125	inactive
35	STAG2 (STAG2 cohesin complex component)	0.602	1	-0.115	-0.1	inactive
36	EPHB4 (EPH receptor B4)	0.2	0.958	-0.17	-0.138	inactive
37	PRKCD (protein kinase C delta)	-4.06	0.515	-0.166	-0.0819	active
38	GRK6 (G protein-coupled receptor kinase 6)	-0.432	0.893	-0.194	-0.0865	inactive
39	TSSK6 (testis specific serine kinase 6)	-1.13	0.82	-0.121	-0.181	inactive
40	CDK16 (cyclin dependent kinase 16)	-1.36	0.796	-0.2	-0.115	inactive
41	CDC42BPG (CDC42 binding protein kinase gamma)	0.602	1	-0.00204	-0.1	inactive
42	BRSK2 (BR serine/threonine kinase 2)	0.602	1	-0.16	-0.1	inactive
43	MOK (MOK protein kinase)	-1.37	0.795	-0.126	0.0131	inactive
44	EFNA3 (ephrin A3)	0.602	1	-0.146	-0.1	inactive
45	TEC (tec protein tyrosine kinase)	-3.15	0.61	-0.179	-0.158	active
46	PRKCSH (PRKCSH beta subunit of glucosidase II)	-0.219	0.915	-0.00665	-0.0813	inactive
47	GRK4 (G protein-coupled receptor kinase 4)	0.602	1	-0.283	-0.1	inactive
48	MLKL (mixed lineage kinase domain like pseudokinase)	-2.1	0.72	-0.205	-0.0094	inactive
49	CDK5 (cyclin dependent kinase 5)	0.602	1	-0.237	-0.1	inactive
50	ITPKC (inositol-trisphosphate 3-kinase C)	-1.27	0.805	-0.0954	-0.169	inactive
